Test results published in patent publication US20260139047A1.
No constants are given. Whether binding was seen depends on the method and setting. Some entries that bind do so weakly or less than the wild type.

Protein sequences, listed by entry. Tags and fused reporters are not part of them. Residues count along the entry.
UniProt P60568, residues 21-153: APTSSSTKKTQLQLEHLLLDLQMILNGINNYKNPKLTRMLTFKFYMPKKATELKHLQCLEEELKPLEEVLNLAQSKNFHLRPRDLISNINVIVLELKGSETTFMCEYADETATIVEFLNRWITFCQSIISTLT

Molecular target: IL-2 (C013, Novoprotein) (UniProt P60568)
Assay: SPR (Biacore T200)

binding | Binder
binds | C2-53 (antibody, human IgG1, kappa, L234A L235A, V domains shown) VH: EVQLVESGGGLVQPGRSLILSCAASGFTFDDYAMHWVRQAPGKGLEWVSGISWNSGSIGYADSVKGRFTISRDNAKNSLYLQMNSLRAEDTALYYCAKDQLRWGTYYYYGMDVWGQGTTVTVSS VL: DIQMTQSPSTLSASVGDRVTITCRASQSVSIWVAWYQQKPGKAPKLLIYKASSLERGVPTRFSGSGSGTEFTLTISSLQPEDFATYHCQQYDTGATFGQGTKVEMKR
binds | D3-68 (antibody, human IgG1, kappa, L234A L235A, V domains shown) VH: QVQLVQSGPEVKKPGASVKVSCKASGYTFTSYGISWVRRAPGQGLEWMGWISAYNGNTNYAQKLQGRVTMTTDTSTSTAYMELRSLRSDDTAVYYCARDLQSPTYYYGSGVIDYWGQGTLVTVSS VL: DIQLTQSPSTLSASVGDRVTISCRASRAVSPWLAWYQHRPGQAPKLLIYAASSLQSGVPSRFSGSGSGTDFTLTISSLQPEDFATYYCQQYRSYPFTFGPGTTVDIRR
binds | D2-60 (antibody, human IgG1, kappa, L234A L235A, V domains shown) VH: QVQLVQSGAEVKKPGASVKVSCKASGYTFTSYGISWVRQAPGQGLEWMGWISAYNGNTNYAQKLQGRVTMTTDTSTSTAYMELRSLRSDDTAVYYCAREYSSWYSGGMDVWGQGTTVTVSS VL: DIQMTQSPSSLSASVGDRVTITCRASQGISNYLAWYQQKPGKVPKLLIYAASTLQSGVPSRFSGSGSGTDFTLTISSLQPEDVATYYCQKYDSAPFTFGQGTRLEIKR
